In patent EP3964206A1, “COMPOUNDS FOR THE TREATMENT OF COVID-19” (priority 2020, dated 2022):
At least one read-out could not be matched to a standard name with certainty.

System: SARS-CoV-2
Assay type: cell-based

Structure (SMILES)	Maximum confluence reached (%)
CC(C)(C)c1cc(C=C(C#N)C#N)cc(C(C)(C)C)c1O [Compound 103, (3,5-Di-tert-butyl-4-hydroxybenzylidene)malononitrile]	51.51%
Cl.O=C(c1c2ccccc2cc2ccccc12)N1CCC(N2CCC[C@@H](C(=O)N3CCOCC3)C2)CC1 [Compound 101, 1-[1'-(Anthracen-9-ylcarbonyl)-1,4'-bipiperidin-3(R)-yl]-1-(4-morpholinyl)methanone hydrochloride]	50.88%
